According to PubChem BioAssay AID504467 (National Center for Advancing Translational Sciences (NCATS), 2011):
Out of some 330,000 compounds screened, about 7,700 (2.3%) were called active. Inconclusive results, whose numbers are uncertain, are shown with a selection of clear calls. Calls follow the shape of the dose curve; as a rule, active = well fitted inhibition curve with a large enough effect; inconclusive = small, poorly fitted or top-dose-only effect, or effect the other way; inactive = flat fitted curve, though single readings scatter. Potencies of inconclusive entries are doubtful fits and often do not repeat.

Experiment: qHTS screen for small molecules that inhibit ELG1-dependent DNA repair in human embryonic kidney (HEK293T) cells expressing luciferase-tagged ELG1; also: nearly all actives have a fitted effect of over 55% in size
Settings: HEK293T ELG1-luciferase reporter, luminescence, 16 h, DNA damage induced by 5-fluorouridine; series mostly up to 46.1 µM
Procedure, shortened: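 HEK293T cells expressing luciferase-tagged ELG1 (2,000/well) received 5-Fluorouridine plus compound or DMSO for 16 hr at 37 °C. Luciferase was read by ONE-Glo luminescence after 30 min at room temperature.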
Potency is read from the fitted curve at half-maximal effect.

Compound	Potency
COc1ccc2[nH]c(=O)c(CN(CCO)S(=O)(=O)c3c(C)ccc4nsnc34)cc2c1	inactive
Cc1cc(NC(=O)CSc2nnc(CNc3ccc(F)cc3)n2C2CCCCC2)no1	inconclusive: 32.6 µM [inhibitor, single point]
CC1CCc2onc(C(=O)NCc3ccco3)c2C1 (configuration not stated)	inactive
CNC(=O)COC(=O)/C=C/c1cccc(F)c1	inactive
Cc1ccc(CC(=O)Nc2nccs2)cc1C	inconclusive: 20.6 µM [inhibitor, partial curve, poor fit]
COc1cc(Cl)ccc1OCc1cc(C(=O)N2CCCC(OC)C2)no1 (configuration not stated)	inconclusive: 18.3 µM [activator, partial curve]
CN(C)S(=O)(=O)c1ccc2oc(SCC(=O)Nc3ccccc3F)nc2c1	inconclusive: 9.2 µM [activator, partial curve]
COc1ccc(/C=C(/NC(=O)c2cccc([N+](=O)[O-])c2)C(=O)O)cc1OC	inactive
CCC1Oc2ccc(C)cc2N(CC(=O)N(Cc2ccc(C)o2)C2CCCC2)C1=O (configuration not stated)	inconclusive: 23.1 µM [inhibitor, single point]
COc1cc2c(cc1OC)CN(c1nc(CN3CCOCC3)nc3sc4c(c13)CCC(C)C4)CC2 (configuration not stated)	active: 7.31 µM
O=C(NCCc1ccccc1)c1ccc(Br)o1	inconclusive: 20.6 µM [activator, partial curve]
Cc1oc2ccc(O)cc2c1C(=O)c1ccc([N+](=O)[O-])cc1	inconclusive: 13 µM [inhibitor, partial curve]
COc1ccc(/C(C)=N\n2cnnc2)cc1	inactive
CC1CCN(C(=O)C(C)Sc2nc(-c3ccccc3)cc(C(F)(F)F)n2)CC1 (configuration not stated)	inconclusive: 29.1 µM [inhibitor, partial curve, poor fit]
O=C(CCC(=O)c1ccc(F)cc1)Nc1cccc(Br)c1	inactive
CCOC(=O)c1ccc(-c2ccc(/C=N/NC(=O)CN(c3cccc(C)c3)S(C)(=O)=O)o2)cc1	inconclusive: 9.2 µM [activator, partial curve]
O=C(CN1C(=O)c2ccccc2C1=O)N1CCN(C2c3ccccc3-c3ccccc32)CC1	active: 16.4 µM
Cn1ncc(Cl)c1C(=O)N/N=C/c1ccccn1	inactive
Cc1[nH]c2ccccc2c1C(=O)C(=O)N1CC=C(c2ccccc2)CC1	inconclusive: 18.4 µM [inhibitor, partial curve, poor fit]
O=C(/C=C/c1ccc(O)cc1)c1ccccc1	inconclusive: 18.3 µM [activator, partial curve]
CC(C)OCCCn1c(=O)c2ccccc2n2c(CCC(=O)NC3CCN(Cc4ccccc4)CC3)nnc12	inactive
O=C(O)/C=C/C(=O)NCCCc1ccccc1	inactive
O=C(CCC1CCN(C(=O)c2cccc(Cl)c2F)CC1)Nc1ccccc1	inconclusive: 20.6 µM [inhibitor, single point]
CC1(C)NC(=O)N(CCCOc2ccccc2Br)C1=O	inconclusive: 23.1 µM [activator, partial curve]

Compound	Potency
O=C(NC1CCCCC1)c1cc(-c2ccccc2O)on1	inconclusive: 13 µM [activator, partial curve]
CCN(CC)c1ccc(NC(=S)NC(=O)C2CCC2)cc1	inactive
COc1cccc(C(=O)NCC(=O)OCC(=O)C(C)(C)C)c1	inconclusive: 20.6 µM [activator, partial curve, poor fit]
CCOC(=O)C1CCCN(CC(=O)Nc2c(F)c(F)c(F)c(F)c2F)C1 (configuration not stated)	inconclusive: 29.1 µM [activator, partial curve, poor fit]
CCOc1ccc(NC(=O)c2cc(F)c(F)cc2Cl)cc1OCC	inconclusive: 25.9 µM [inhibitor, partial curve, poor fit]
CCCCNC(=O)c1sc2ncnc(N3CCc4ccccc4C3)c2c1C	inconclusive: 25.9 µM [inhibitor, single point]
Cc1ccc(-c2nnc(Nc3ccccc3)o2)cc1	inconclusive: 0.146 µM [activator, partial curve]
CCOCc1nnc(NC(=O)c2ccc(NC(C)=O)cc2)s1	inactive
O=C(Cc1ccc(Br)c2ccccc12)N/N=C/c1ccccn1	active: 9.2 µM
CCOC(=O)Cn1nc(C(F)F)c(Br)c1C	inactive
CCOC(=O)c1cnc2c(Cl)cc(Cl)cc2c1NCCOCCO	active: 18.4 µM
COC(=O)c1sccc1NC(=O)Nc1ccc(Cl)c(Cl)c1	inconclusive: 14.6 µM [activator, partial curve]
COc1ccc(/C=N/NC(=O)c2c(-c3ccccc3)noc2C)cc1[N+](=O)[O-]	inconclusive: 25.9 µM [inhibitor, single point]
N/C(COc1ncn(-c2ccccc2)n1)=N\S(=O)(=O)c1ccc(Cl)cc1Cl	active: 16.4 µM
CCOC(=O)C1(Cc2cccc(OC)c2)CCCN(C(=O)CNC(C)=O)C1 (configuration not stated)	inconclusive: 31.6 µM [activator, single point]
NC(=O)C1CCN(C(=S)NCCc2ccccc2)CC1	inactive
Cc1nn(-c2ccc(F)cc2)c(Cl)c1C(=O)N(C)CC(=O)Nc1cccc(F)c1	inconclusive: 20.6 µM [inhibitor, partial curve]
O=C(COc1ccccc1[N+](=O)[O-])N(C1CCCCC1)C1CCS(=O)(=O)C1 (configuration not stated)	inactive
Cc1cccc(NC(=O)Cc2noc3ccccc23)c1	inconclusive: 20.6 µM [activator, partial curve]
Cc1ccccc1N(Cc1cc(=O)[nH]c2ccccc12)C(=O)CCl	active: 10.3 µM
CCOC(=O)c1cc2cc(-c3c(C(=O)OCC)oc4cc(O)cc(O)c4c3=O)ccc2o1	inconclusive: 16.4 µM [inhibitor, single point]
CCN(CC)S(=O)(=O)c1ccc(Cl)c(C(=O)OCC(=O)c2c(N)n(C)c(=O)n(C)c2=O)c1	inconclusive: 16.4 µM [inhibitor, single point]
Cc1ccc(CCCNC(=O)C2CCC(=O)N(Cc3cccc(F)c3)C2)cc1 (configuration not stated)	inactive
CCOc1ccc(/C=C2\CCC(C3CCCC3)C2=O)cc1 (configuration not stated)	inconclusive: 13 µM [activator, partial curve]

18 structures from above, sorted by SMILES length, smallest number first:
Compound	Potency
Cc1ccc(CC(=O)Nc2nccs2)cc1C	inconclusive: 20.6 µM [inhibitor, partial curve, poor fit]
O=C(NCCc1ccccc1)c1ccc(Br)o1	inconclusive: 20.6 µM [activator, partial curve]
Cc1ccc(-c2nnc(Nc3ccccc3)o2)cc1	inconclusive: 0.146 µM [activator, partial curve]
Cc1cccc(NC(=O)Cc2noc3ccccc23)c1	inconclusive: 20.6 µM [activator, partial curve]
CC1(C)NC(=O)N(CCCOc2ccccc2Br)C1=O	inconclusive: 23.1 µM [activator, partial curve]
CCOc1ccc(/C=C2\CCC(C3CCCC3)C2=O)cc1 (configuration not stated)	inconclusive: 13 µM [activator, partial curve]
CCOCc1nnc(NC(=O)c2ccc(NC(C)=O)cc2)s1	inactive
COC(=O)c1sccc1NC(=O)Nc1ccc(Cl)c(Cl)c1	inconclusive: 14.6 µM [activator, partial curve]
CCOc1ccc(NC(=O)c2cc(F)c(F)cc2Cl)cc1OCC	inconclusive: 25.9 µM [inhibitor, partial curve, poor fit]
COc1cccc(C(=O)NCC(=O)OCC(=O)C(C)(C)C)c1	inconclusive: 20.6 µM [activator, partial curve, poor fit]
Cc1ccccc1N(Cc1cc(=O)[nH]c2ccccc12)C(=O)CCl	active: 10.3 µM
Cc1ccc(CCCNC(=O)C2CCC(=O)N(Cc3cccc(F)c3)C2)cc1 (configuration not stated)	inactive
CC1CCN(C(=O)C(C)Sc2nc(-c3ccccc3)cc(C(F)(F)F)n2)CC1 (configuration not stated)	inconclusive: 29.1 µM [inhibitor, partial curve, poor fit]
N/C(COc1ncn(-c2ccccc2)n1)=N\S(=O)(=O)c1ccc(Cl)cc1Cl	active: 16.4 µM
COc1ccc(/C=C(/NC(=O)c2cccc([N+](=O)[O-])c2)C(=O)O)cc1OC	inactive
COc1cc2c(cc1OC)CN(c1nc(CN3CCOCC3)nc3sc4c(c13)CCC(C)C4)CC2 (configuration not stated)	active: 7.31 µM
CC(C)OCCCn1c(=O)c2ccccc2n2c(CCC(=O)NC3CCN(Cc4ccccc4)CC3)nnc12	inactive
CCOC(=O)c1ccc(-c2ccc(/C=N/NC(=O)CN(c3cccc(C)c3)S(C)(=O)=O)o2)cc1	inconclusive: 9.2 µM [activator, partial curve]

The list goes on.

Compound	Potency
O=C(NCCNC1CCC(c2ccccc2)CC1)c1ccc(F)cc1 (configuration not stated)	inactive
COc1ccc(OCc2cc(C(=O)N(C)Cc3cc(C4CC4)n[nH]3)no2)c(Cl)c1	inconclusive: 3.66 µM [activator, partial curve]
CCCNC(=O)OC[C@H]1O[C@H](CCO/N=C/[C@@H](NS(=O)(=O)c2ccc(C)cc2)[C@H](C)/C=C/CC(=O)OC)C=C[C@@H]1Oc1ccc(OC)cc1	inconclusive: 23.1 µM [inhibitor, partial curve, poor fit]
O=C(c1ccccc1)c1ccc(Oc2ccc(C(=O)O)c(C(=O)O)c2)cc1	inconclusive: 14.1 µM [activator, single point]
COc1ccc(OC)c(NC(=O)CN2CCC(NC(=O)c3ccccc3C)CC2)c1	inconclusive: 11.2 µM [inhibitor, single point]
Cc1cccc(S(=O)(=O)N2CN(CC3CCCO3)c3nc4ccccc4nc32)c1 (configuration not stated)	inactive
CN(C)CC(=O)c1ccc(-c2ccccc2)cc1	inconclusive: 29.1 µM [activator, single point]
Cn1c(=O)cc(OCCCC(=O)NCc2ccc3c(c2)OCO3)c2ccccc21	inconclusive: 20.6 µM [activator, partial curve]
O=C(c1ccco1)N1CCCC(c2nc(-c3ccc(S(=O)(=O)NCc4ccccc4)cc3)no2)C1 (configuration not stated)	active: 20.6 µM
COc1cccc(OC)c1C(=O)Nc1c(C(=O)N2CCN(C)CC2)oc2ccccc12	inconclusive: 7.3 µM [activator, partial curve, poor fit]
O=C(O/N=C1/CCCc2occc21)c1ccccc1	inactive
CN(Cc1nc(CCc2ccccc2)no1)Cc1cccs1	inconclusive: 23.1 µM [activator, single point]
CCC(=O)CCC(=O)c1ccc2ccccc2c1	inconclusive: 20.6 µM [activator, partial curve]
CCCOc1ccc(CCc2n[nH]c(=S)n2Cc2ccccc2)cc1	inactive
COc1ccc(NC(=O)c2ccccc2NC(=O)c2ccccc2)cc1	inconclusive: 16.4 µM [activator, partial curve, poor fit]
COc1ccc(N/C=C(\C#N)c2nc3ccccc3n2C)c(OC)c1	active: 25.9 µM
CCC(C)NCC(=O)Nc1ccc(-c2nc3cc(NC(=O)CNC(C)CC)ccc3o2)cc1 (configuration not stated)	inactive
O=C(N/N=C\C=C\c1ccco1)C1COc2ccccc2O1 (configuration not stated)	inactive
Cc1ccc(C(=O)Nc2cccc(NC(=O)c3ccc(C)c([N+](=O)[O-])c3)n2)cc1[N+](=O)[O-]	inconclusive: 23.1 µM [inhibitor, partial curve, poor fit]
COc1ccc(-c2cnc3c(-c4ccc(F)cc4)cnn3c2N)cc1	inconclusive: 2.31 µM [activator, full curve]
Nc1ccc2nc(-c3ccccn3)[nH]c2c1	inconclusive: 2.06 µM [activator, partial curve, poor fit]
COc1cc(C2NC(=O)c3ccccc3O2)cc(OC)c1OC (configuration not stated)	inactive
O=C(CC1C(=O)NCCN1C/C=C/c1ccccc1)NCCCC1CCCC1 (configuration not stated)	inconclusive: 29.1 µM [activator, single point]
CCOC(=O)c1sc(N/N=C/c2cc(Br)c(O)c(OC)c2)nc1C	inconclusive: 29.1 µM [inhibitor, single point]
